Drawing on PubChem BioAssay AID1487 (National Center for Advancing Translational Sciences (NCATS), 2009), this text covers AC50 for 56 compounds.

Some of the results follow. Further columns of the screen follow, without active or inactive calls. The list favours compounds with an active or inconclusive main result. The note in brackets gives the kind of curve behind each potency; many fits are weak.

A short description of the assay: qHTS Assay for Modulators of Lamin A Splicing. Conditions: HeLa LMNA splicing GFP/RFP minigene ratio, 48 h. The essentials: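 S3 HeLa cells stably expressing lamin A-EGFP splicing minigene plus DsRed2, 600 cells/well, 48 h compound exposure at 37C. Laser-scanning cytometry; analysed as GFP (500-530 nm)/RFP (575-640 nm) total intensity ratio; 0.5% DMSO vehicle.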

[1] abbreviates: measured here: GFP splicing reporter channel.
[2] abbreviates: measured here: RFP viability control channel.

Usually AC50 stands for the midpoint of the concentration-response curve, whichever way the signal moves. Take `CNCc1c(OCc2ccc(F)cc2)ccc2ccccc12`: the AC50 under setting [1] was 35.5 µM [falling, single point] and the AC50 under setting [2] was 7.08 µM [falling, partial curve, poor fit].
Consider `CCOC(=O)Cc1csc(NC(=O)CSc2ncnc3c2cnn3-c2ccccc2Cl)n1`, for which the AC50 under setting [2] is 25.1 µM [rising, single point].
Turning to `Cc1nc2ccn(Cc3cccnc3)c(=O)c2cc1C(=O)N1CCN(c2ccc(F)cc2)CC1`, the AC50 under setting [2] is 0.0178 µM [falling, full curve, poor fit].
Turning to `O=C(O)c1ccccc1C(=O)NNc1cccc(Cl)n1`, the AC50 under setting [1] is 0.501 µM [rising, full curve, poor fit].
On to `CCS(=O)(=O)N1CC(=O)N(c2ccc(Cl)cc2)C(C)(C(=O)NC2CCCCCC2)C1` (stereo not drawn), for which the AC50 under setting [1] was 11.2 µM [falling, partial curve].
Turning to `COc1ccc(CCNC(=O)C(C)n2c(=O)cc(C(F)(F)F)c3c(C)nn(C)c32)cc1OC` (stereo not drawn), the concentration at half-maximal activity (AC50) under setting [1] is 8.91 µM [falling, full curve, poor fit].
Take `CCOc1ccccc1/C=N/NC(=O)c1cccc(S(=O)(=O)N2CCOCC2)c1`: the AC50 under setting [2] was 2.24 µM [falling, partial curve].
Consider `O=C(OC1CCS(=O)(=O)c2sccc21)c1ccccc1` (stereo not drawn), for which the AC50 is, setting by setting: under setting [1], 5.62 µM [falling, single point]; under setting [2], 5.62 µM [falling, single point].
`Cc1cc(NC(=O)CN2C(=O)c3cccnc3Sc3ccccc32)ccc1Br`: the AC50 runs as follows: under setting [1], 39.8 µM [falling, partial curve, poor fit]; under setting [2], 22.4 µM [falling, partial curve].
As to `COc1ccc(-c2csc(-c3[nH]cnc3N)n2)cc1`, under setting [1], the AC50 is 2.51 µM [rising, full curve].
Consider `Cc1nn(C)c(C)c1CN(C)S(=O)(=O)c1ccc(F)cc1`, for which the AC50 under setting [1] was 14.1 µM [rising, single point] and the half-maximal activity concentration (AC50) under setting [2] is 12.6 µM [rising, partial curve].
Regarding `O=C(NC1CCN(C(=O)N2c3ccccc3Sc3ccccc32)CC1)c1ccco1`, the AC50 is 11.2 µM [rising, partial curve] under setting [1] and 14.1 µM [rising, partial curve] under setting [2].
With `Cc1ccc(CNC(=O)CCC2CCCN(Cc3c(C)nn(C(C)C)c3C)C2)o1` (stereo not drawn), the AC50 under setting [2] was 0.0178 µM [falling, full curve, poor fit].
On to `Cc1cc2cc(C#N)c(NCCNC(=S)NCCCN3CCOCC3)nc2cc1C`, for which, under setting [2], the AC50 is 7.08 µM [rising, partial curve, poor fit].
Consider `Cc1nnc(Sc2nc3c(c(=O)n(C)c(=O)n3C)n2Cc2ccc(Cl)cc2)s1`, for which the AC50 under setting [2] is 5.62 µM [falling, partial curve, poor fit].
As to `Cc1cccn2c(=O)c(C(=O)NC(C)c3ccccc3)cnc12` (stereo not drawn), under setting [1], the AC50 was 0.158 µM [rising, full curve, poor fit].
Consider `CC1CN(c2nc(-c3ccc(Br)cc3)nnc2-c2ccccc2)CC(C)N1` (stereo not drawn), for which, under setting [1], the AC50 is 14.1 µM [falling, single point].
As for `O=C(c1ccco1)n1nc(-c2cccnc2)nc1NCc1ccco1`, the AC50 under setting [1] was 1.41 µM [rising, full curve, poor fit].
`COc1ccc(Nc2oc(-c3ccc(COc4ccccc4C)o3)nc2C#N)cc1`: the AC50 under setting [2] was 2.24 µM [rising, single point].
Turning to `Cc1ccc(CSc2nc3ccccc3c(=O)n2Cc2ccco2)cc1`, the AC50 is, setting by setting: under setting [1], 22.4 µM [rising, single point]; under setting [2], 17.8 µM [rising, partial curve].
For `COc1cc(-c2nnc(SCc3cc(=O)oc4cc(O)c(O)cc34)o2)cc(OC)c1OC`, under setting [1], the AC50 was 35.5 µM [falling, single point].
Turning to `CCOc1ccc(/C=C/[N+](=O)[O-])c2ccccc12`, the AC50 is 10 µM [falling, partial curve] under setting [1] and 15.8 µM [falling, partial curve] under setting [2].
`O=C(NCc1c(Cl)cccc1Oc1ccccc1)c1ccccc1`: the AC50 is 0.00447 µM [falling, full curve, poor fit] under setting [1] and 0.00447 µM [falling, full curve, poor fit] under setting [2].
As for `CCCCOC(=O)c1ccc(N)cc1`, the AC50 reads like this: under setting [1], 25.1 µM [rising, partial curve]; under setting [2], 7.08 µM [falling, single point].
As for `CCOc1ccc2cc(S(=O)(=O)N3CCOCC3)ccc2c1`, the AC50 under setting [1] was 12.6 µM [falling, partial curve, poor fit].
Regarding `CN1CCCN([C@@H](c2ccccc2)c2ccc(Cl)cc2)CC1`, the AC50 under setting [1] is 0.00158 µM [falling, full curve, poor fit].
On to `COC(=O)c1ccc(CN2C(=O)NC3(CCCCC3)C2=O)cc1`, for which the half-maximal activity concentration (AC50) under setting [1] was 0.0891 µM [rising, full curve, poor fit].
For `CCN(CC)C(C(=O)Nc1ccc(C(C)C)cc1)c1ccc2c(c1)OCO2` (stereo not drawn), the AC50 under setting [1] is 31.6 µM [rising, single point].
Still for that read-out and setting: in the case of `S=c1nc[nH]c2c1ncn2C1CCCO1` (stereo not drawn) it was 0.355 µM [falling, full curve, poor fit].
As to `CC1=C(C(=O)NCc2cccc(F)c2)C2(CCCCC2)OC1=O`, the AC50 is 14.1 µM [rising, single point] under setting [1] and 17.8 µM [rising, single point] under setting [2].
For the compound `Cc1cccc(N2C(=O)CN(Cc3cccs3)C2=S)c1`, the AC50 was 0.141 µM [falling, full curve, poor fit] under setting [1] and 0.0891 µM [falling, full curve, poor fit] under setting [2].
As to `CCOC(=O)/C(C#N)=C/c1cc(C)n(-c2ccc(C)cc2)c1C`, the AC50 under setting [2] is 17.8 µM [rising, single point].
In the case of `COc1ccc(C(=O)CSc2nnc(CCc3ccccc3)n2-c2ccccc2)cc1`, the AC50 under setting [1] was 1.58 µM [falling, partial curve] and the half-maximal activity concentration (AC50) under setting [2] is 1.12 µM [falling, partial curve].
Take `Cc1ccc(CN2C(=O)S/C(=C\c3ccccc3OCC(=O)O)C2=O)cc1`: the AC50 under setting [2] was 2.51 µM [rising, partial curve, poor fit].
Take `Cc1nn(C)cc1CN(C)C(=O)c1cc(-c2ccccc2)nc2ccc(Br)cc12`: the AC50 under setting [2] is 0.562 µM [falling, full curve, poor fit].
As to `CCC(=O)NC(=S)Nc1cccc(NC(=O)CC)c1`, the AC50 under setting [2] is 0.891 µM [rising, partial curve].
Turning to `COc1ccc(-c2cn3cccnc3n2)cc1NS(=O)(=O)c1ccccc1`, under setting [1], the AC50 was 6.31 µM [falling, partial curve, poor fit].
As to `CCOC(=O)CSc1ccc(C(=O)Nc2ccc(Cl)cc2)cn1`, the AC50 under setting [1] is 10 µM [falling, partial curve, poor fit].
Turning to `CCOc1ccc(NC(=O)CCSc2nc3c(c(CC)c2C#N)C(=O)CC(C)(C)C3)cc1`, the AC50 is, setting by setting: under setting [1], 22.4 µM [falling, partial curve, poor fit]; under setting [2], 22.4 µM [falling, partial curve, poor fit].
With `Cc1cc(C)c2c(N)c(C(=O)Nc3nccs3)sc2n1`, the AC50 under setting [2] was 5.01 µM [rising, single point].
With `CCOC(=O)c1cccc(NC(=O)C2CCCN(S(=O)(=O)c3c(C)n[nH]c3C)C2)c1` (stereo not drawn), under setting [2], the AC50 was 31.6 µM [rising, single point].
`CC(C)Cn1c(N)c(C(=O)COC(=O)c2cc(C(F)(F)F)nc3ccccc23)c(=O)n(C)c1=O`: under setting [2], the AC50 was 35.5 µM [rising, single point].
As for `COCc1cc(C)nc2c1C(=O)NC(c1ccc(F)cc1)N2Cc1ccccc1` (stereo not drawn), under setting [2], the AC50 was 0.0158 µM [falling, full curve, poor fit].
As to `COc1ccc(CNC(=S)Nc2cc(C)cc(C)c2)cc1`, the concentration at half-maximal activity (AC50) by setting is: under setting [1], 15.8 µM [rising, single point]; under setting [2], 31.6 µM [rising, single point].
For the compound `COc1ccccc1N1CCN(C(=O)CCCN2C(=O)c3cccc4cccc(c34)C2=O)CC1`, the AC50 under setting [2] was 0.0316 µM [rising, full curve, poor fit].
Regarding `CSc1nc(-c2ccccc2)cn1-c1ccc(NC(C)=O)cc1`, under setting [2], the AC50 is 17.8 µM [rising, partial curve, poor fit].
With `COCC(C)NC(=O)CCS(=O)(=O)c1nc(-c2ccc(OC)cc2)cc(C(F)(F)F)n1` (stereo not drawn), the AC50 under setting [2] was 31.6 µM [falling, single point].
As to `Cc1ccc2cc(/C=N/NC(=O)c3ccccc3O)c(Cl)nc2c1`, the AC50 is 35.5 µM [rising, single point] under setting [1] and 25.1 µM [rising, single point] under setting [2].
With `COc1ccc(C(=O)Nc2cccc(-c3nnc(-c4ccco4)o3)c2)cc1`, the AC50 under setting [2] was 31.6 µM [rising, single point].
Consider `COc1ccc(CNc2ncnc3ccc(-c4cccc(NS(C)(=O)=O)c4)cc23)c(OC)c1`, for which the AC50 was 6.31 µM [falling, full curve] under setting [1] and 6.31 µM [falling, full curve] under setting [2].
`O=C(Nc1ccccc1F)N(CCCN1CCOCC1)Cc1cc2cc3c(cc2[nH]c1=O)OCCO3`: under setting [2], the AC50 was 17.8 µM [rising, single point].
In the case of `O=c1c(=O)n(-c2ccc(F)c(F)c2)ccn1Cc1ccc(F)cc1Cl`, under setting [2], the AC50 was 17.8 µM [falling, partial curve, poor fit].
As to `CCOc1ccc(NC(=O)N2CCN(c3nnc(C)c4c(C)n(-c5ccccc5)nc34)CC2)cc1`, the AC50 under setting [2] was 2 µM [falling, full curve, poor fit].
For the compound `CN(C)/N=N/c1nc[nH]c1C(N)=O`, the AC50 is 10 µM [rising, partial curve, poor fit] under setting [1] and 11.2 µM [rising, partial curve, poor fit] under setting [2].
For `CCOC(=O)c1noc2ncn(CC(=O)Nc3cccc(C(F)(F)F)c3)c(=O)c12`, the AC50 under setting [2] was 4.47 µM [falling, single point].
With `CCn1cc([N+](=O)[O-])c(C(=O)N2N=C(c3cccc4ccccc34)CC2c2ccccc2O)n1` (stereo not drawn), the AC50 under setting [2] is 17.8 µM [rising, single point].
